Publication PMC5464768, “ER retention is imposed by COPII protein sorting and attenuated by 4-phenylbutyrate” (eLife, 2017)
Positions count from the first letter of the chain named. Results are given in words; binding and its absence hold for the method and conditions named. Some entries that bind do so weakly or less than the wild type.

Chains of the proteins cited; added tags and fusions are not shown.
UniProt Q15436: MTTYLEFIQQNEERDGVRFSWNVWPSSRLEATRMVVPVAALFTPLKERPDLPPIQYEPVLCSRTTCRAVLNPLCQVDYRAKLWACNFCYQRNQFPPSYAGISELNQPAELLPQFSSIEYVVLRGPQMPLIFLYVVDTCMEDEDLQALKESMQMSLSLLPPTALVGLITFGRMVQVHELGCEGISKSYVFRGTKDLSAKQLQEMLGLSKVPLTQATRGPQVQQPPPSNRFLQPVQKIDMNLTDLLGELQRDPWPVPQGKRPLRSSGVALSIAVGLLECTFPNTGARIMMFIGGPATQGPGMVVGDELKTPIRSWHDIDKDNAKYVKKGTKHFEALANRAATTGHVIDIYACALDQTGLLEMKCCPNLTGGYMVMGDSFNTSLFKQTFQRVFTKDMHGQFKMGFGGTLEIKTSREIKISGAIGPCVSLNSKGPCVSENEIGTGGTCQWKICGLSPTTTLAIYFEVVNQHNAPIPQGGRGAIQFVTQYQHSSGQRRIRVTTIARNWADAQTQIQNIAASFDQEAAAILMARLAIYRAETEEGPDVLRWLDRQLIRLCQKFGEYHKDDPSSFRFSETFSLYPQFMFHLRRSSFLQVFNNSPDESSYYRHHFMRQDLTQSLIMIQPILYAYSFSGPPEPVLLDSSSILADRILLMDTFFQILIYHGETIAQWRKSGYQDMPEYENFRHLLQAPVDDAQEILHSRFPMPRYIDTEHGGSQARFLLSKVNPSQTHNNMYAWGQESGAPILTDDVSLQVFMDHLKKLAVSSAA

Legend:
[1] = biological target: T1, Sec24d L750W (full-length) (H. sapiens) (UniProt O94855); assay: co-purification; complex purified from High Five insect cell lysate by the N-terminal His6 tag of one subunit (HisTrap HP), then HiTrap Q and Superdex 200 in 20 mM Tris-HCl pH 7.5, 500 mM NaCl, 1 mM DTT
T1 sequence: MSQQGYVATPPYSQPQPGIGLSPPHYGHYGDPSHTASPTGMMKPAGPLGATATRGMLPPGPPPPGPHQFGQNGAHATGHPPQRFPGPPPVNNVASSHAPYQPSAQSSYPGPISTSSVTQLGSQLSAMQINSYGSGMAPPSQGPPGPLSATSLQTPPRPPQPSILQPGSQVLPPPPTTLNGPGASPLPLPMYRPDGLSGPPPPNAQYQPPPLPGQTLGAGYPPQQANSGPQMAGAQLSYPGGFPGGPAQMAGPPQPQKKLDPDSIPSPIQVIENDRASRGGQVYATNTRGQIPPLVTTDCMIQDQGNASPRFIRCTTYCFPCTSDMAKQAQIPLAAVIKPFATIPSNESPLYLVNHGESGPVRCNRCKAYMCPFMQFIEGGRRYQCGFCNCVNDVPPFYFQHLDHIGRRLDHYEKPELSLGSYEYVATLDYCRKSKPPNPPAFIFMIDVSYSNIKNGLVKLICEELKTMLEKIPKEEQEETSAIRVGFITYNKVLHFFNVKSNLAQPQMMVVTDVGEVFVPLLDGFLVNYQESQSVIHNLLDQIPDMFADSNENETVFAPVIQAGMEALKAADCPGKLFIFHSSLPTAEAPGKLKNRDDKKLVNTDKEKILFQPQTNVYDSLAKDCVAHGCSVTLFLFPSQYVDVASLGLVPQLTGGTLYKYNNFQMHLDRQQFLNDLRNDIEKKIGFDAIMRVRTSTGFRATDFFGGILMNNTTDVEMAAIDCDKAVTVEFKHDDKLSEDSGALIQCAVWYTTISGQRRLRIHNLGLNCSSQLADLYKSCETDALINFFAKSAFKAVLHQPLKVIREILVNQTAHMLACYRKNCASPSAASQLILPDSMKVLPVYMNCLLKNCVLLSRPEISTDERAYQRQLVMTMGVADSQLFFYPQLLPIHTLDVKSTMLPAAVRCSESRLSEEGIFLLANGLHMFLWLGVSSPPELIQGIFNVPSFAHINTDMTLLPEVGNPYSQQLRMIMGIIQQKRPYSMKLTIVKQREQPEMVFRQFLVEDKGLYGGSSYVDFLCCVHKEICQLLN

[2] = biological target: T2, Sec24d (full-length, wild type) (H. sapiens) (UniProt O94855); assay: as above
T2 sequence: T1 sequence with W750L

## Sec23a (full-length) (from UniProt Q15436 1-765)
[1]
  binding: binds
[2]
  binding: binds
